{"source": "PubChem BioAssay AID540276", "about": "(National Center for Advancing Translational Sciences (NCATS), 2011)", "note": "Hit rate of the full screen: of about 300,000 compounds, about 5,400 (1.8%) were called active. Inconclusive results, whose numbers are uncertain, are shown with a selection of clear calls. Calls follow the shape of the full dose curve; tested in HEK293 cells. Potencies beside an inconclusive call are fits to weak or partial responses and may not hold up. % is scaled to controls: 0 for no effect and ±100 for the full control effect; potency is read from the fitted curve at half-maximal effect.", "data": [{"test": "qHTS for inhibitors of binding or entry into cells for Marburg Virus", "settings": "Marburg virus pseudotyped entry inhibition, cell reporter; activity change, negative = inhibition: at 37.8 µM (top of the series) unless noted", "values": [{"smiles": "CCN1CCN(C(=O)c2ccc(CSc3ccc(C)cc3)cc2)CC1", "Potency": "inconclusive: 32.6 µM [inhibitor, single point]"}, {"smiles": "Cc1cc2ccccc2nc1SCC(=O)N1c2ccccc2CC1C", "note": "(configuration not stated)", "Potency": "inconclusive: 15.8 µM [inhibitor, single point]"}, {"smiles": "COc1ccc(OCC(=O)N/N=C(\\C)c2cc3ccccc3o2)cc1", "activity change, negative = inhibition": "inactive: -40.2%"}, {"smiles": "COc1ccc(C(C)(C)C)cc1NC(=O)c1[nH]c(C)c(C(C)=O)c1C", "Potency": "active: 10 µM"}, {"smiles": "Cc1cccc(N2C(=O)CC(N3CCOCC3)C2=O)c1", "note": "(configuration not stated)", "Potency": "inconclusive: 6.31 µM [activator, single point]"}, {"smiles": "CC(=O)Nc1ccc(CCNC(=O)c2ccc3ccccc3c2O)cc1", "Potency": "inconclusive: 2.51 µM [inhibitor, full curve, poor fit]"}, {"smiles": "CC(=O)OCCNc1cc(SCc2ccco2)c2nonc2c1[N+](=O)[O-]", "Potency": "inconclusive: 14.1 µM [inhibitor, partial curve, poor fit]"}, {"smiles": "COc1ccc(N2CCN(C(=O)c3cc4c(s3)-c3ccccc3S(=O)(=O)C4)CC2)cc1", "Potency": "inconclusive: 2.82 µM [inhibitor, partial curve, poor fit]"}, {"smiles": "CC(C(=O)N(C)Cc1ccccc1)N1CCN(C/C=C/c2ccccc2)CC1", "note": "(configuration not stated)", "Potency": "inconclusive: 20 µM [inhibitor, single point]"}, {"smiles": "Cc1cc(C)cc(C(=O)OCC(=O)NCc2ccco2)c1", "Potency": "inconclusive: 12.6 µM [inhibitor, partial curve, poor fit]"}, {"smiles": "CCN1CCN(c2cc(N3CCCC3)c([N+](=O)[O-])cc2F)CC1", "activity change, negative = inhibition": "inactive: 0.849%"}, {"smiles": "O=C(COC(=O)Cc1c(Cl)cccc1Cl)NCC1CCCO1", "note": "(configuration not stated)", "Potency": "inconclusive: 1.41 µM [inhibitor, partial curve, poor fit]"}, {"smiles": "Cc1ccc(NC(=O)[C@@H]2CCCN2S(=O)(=O)c2ccccc2F)cc1S(=O)(=O)N1CCOCC1", "Potency": "inconclusive: 0.355 µM [inhibitor, full curve, poor fit]"}, {"smiles": "COc1ccc(-c2nc3cc(C(C)C)ccc3o2)cc1NC(=O)c1ccc(C)c(Cl)c1", "Potency": "inconclusive: 6.31 µM [inhibitor, single point]"}, {"smiles": "Cc1cccc(OCC(=O)Nc2ccc3oc(-c4ccccc4F)nc3c2)c1", "activity change, negative = inhibition": "inactive: 12.6% [at 46.1 µM]"}, {"smiles": "COc1ccc(Cc2cnc(N)s2)cc1", "activity change, negative = inhibition": "inactive: -0.244% [at 46.1 µM]"}, {"smiles": "CN(C)/C=N/C(=S)Nc1ccccc1Cl", "Potency": "inconclusive: 35.5 µM [activator, single point]"}, {"smiles": "O=[N+]([O-])c1nn(-c2ccc3c(c2)OCCO3)n(O)c1=Nc1ccc(Cl)cc1", "Potency": "inconclusive: 29.1 µM [inhibitor, single point]"}, {"smiles": "CCOc1ccc(C(=O)NC2CCN(C(=O)Nc3ccc(F)cc3)CC2)cc1", "activity change, negative = inhibition": "inactive: 1.13% [at 46.1 µM]"}, {"smiles": "CC(C(=O)N1CCc2ccccc21)N1CCN(c2cccc(C(F)(F)F)c2)CC1", "note": "(configuration not stated)", "Potency": "inconclusive: 20 µM [inhibitor, partial curve, poor fit]"}, {"smiles": "O=C(CSc1nnc(-c2cccnc2)o1)Nc1ccc(Br)cc1", "activity change, negative = inhibition": "inactive: 1.78% [at 46.1 µM]"}, {"smiles": "Cc1cccc(C)c1NC(=O)CNC(=O)CNC(=O)c1ccc2c(c1)OCO2", "activity change, negative = inhibition": "inactive: 6.23%"}, {"smiles": "CCN(CC)c1ccc(C(=O)OCc2cc(=O)oc3cc(O)ccc23)cc1", "Potency": "inconclusive: 35.5 µM [inhibitor, single point]"}, {"smiles": "FC(F)(F)c1ccc2c(c1)ncn2C1CCN(Cc2nnnn2C2CCCCC2)CC1", "Potency": "inconclusive: 0.259 µM [inhibitor, partial curve, poor fit]"}, {"smiles": "COc1ccc(/C=C(\\NC(=O)c2ccco2)C(=O)N2CCCCC2)cc1", "Potency": "inconclusive: 35.5 µM [activator, single point]"}, {"smiles": "O=C(NCCSSCCNC(=O)c1ccccc1)c1ccccc1", "Potency": "inconclusive: 35.5 µM [activator, single point]"}, {"smiles": "C=CCn1c(C)cc(C(=O)CN2C(=O)c3ccccc3C2=O)c1C", "Potency": "inconclusive: 8.2 µM [inhibitor, partial curve, poor fit]"}, {"smiles": "C/C(CC(=O)Nc1ccc(Cl)cc1C(F)(F)F)=N\\NC(=O)c1ccccn1", "Potency": "inconclusive: 7.94 µM [inhibitor, partial curve, poor fit]"}, {"smiles": "CC(C)CC(=O)N/C(N)=N/c1nc2ccccc2o1", "Potency": "inconclusive: 6.31 µM [activator, single point]"}, {"smiles": "COc1ccc(Cl)cc1-c1nc(-c2ccc(NC(=O)c3cccs3)cc2)no1", "Potency": "inconclusive: 6.31 µM [activator, single point]"}, {"smiles": "Oc1c(C(Nc2nc3ccccc3s2)c2ccco2)ccc2cccnc12", "note": "(configuration not stated)", "Potency": "inconclusive: 0.708 µM [inhibitor, full curve, poor fit]"}, {"smiles": "CCOC(=O)c1ccc(CN2Cc3ccccc3C2=O)cc1", "Potency": "inconclusive: 5.62 µM [inhibitor, single point]"}, {"smiles": "C=CCN(CC=C)C(=S)NC(=O)c1ccc(OC)c(Br)c1", "Potency": "inconclusive: 16.4 µM [inhibitor, single point]"}, {"smiles": "O=C1c2cccc3cccc(c23)C(=O)N1c1ccc2ncccc2c1", "Potency": "inconclusive: 17.8 µM [inhibitor, partial curve, poor fit]"}, {"smiles": "O=C(CS(=O)(=O)c1ccccc1)N(CCCN1CCOCC1)c1nc2c(F)cccc2s1", "Potency": "inconclusive: 1.58 µM [activator, partial curve, poor fit]"}, {"smiles": "CC(C)CNS(=O)(=O)c1cc(C(=O)OCC(=O)N2CCOCC2)c(Cl)cc1Cl", "Potency": "inconclusive: 35.5 µM [inhibitor, single point]"}, {"smiles": "O=C(Cn1nnc(-c2ccc(Cl)cc2)n1)NCCC1=CCCCC1", "Potency": "inconclusive: 6.51 µM [inhibitor, partial curve, poor fit]"}, {"smiles": "COc1ccc(CC(=O)Nc2nc(C(C)(C)C)cs2)cc1", "Potency": "inconclusive: 35.5 µM [inhibitor, single point]"}, {"smiles": "CCCCc1nc2c(c3c1C[C@H](C)OC3)CN(C(=O)C1CCCCC1)CC2", "Potency": "inactive"}, {"smiles": "CCCc1nc(SCC(=O)c2ccc(OC)cc2)c2ccccc2n1", "Potency": "inconclusive: 31.6 µM [inhibitor, single point]"}, {"smiles": "CSCCC1Nc2ccc(S(=O)(=O)N3CCOCC3)cc2NC1=O", "note": "(configuration not stated)", "activity change, negative = inhibition": "inactive: -8.17% [at 46.1 µM]"}, {"smiles": "O=C1CN(C(=O)c2ccc(S(=O)(=O)N3CCCCC3)cc2)C(c2ccc(F)cc2)c2cc(Br)ccc2N1", "note": "(configuration not stated)", "Potency": "inconclusive: 35.5 µM [inhibitor, single point]"}]}]}
